Results: article PMC11438709
These are yes or no findings as the source states them, for the method shown. In cells and extracts the contact can be indirect. A result given as binding can be weak or reduced; the word gives no strength. For some assays here: Where a sequence is shown, tags or fusion partners need not be part of it.

Assays:
[1] = biological target: T1, PKCzeta (human (endogenous in HUVECs)) (UniProt Q05513); assay: co-IP; 2.5 ug PKCzeta antibody added to 500 ug HUVEC lysate with protein A+G magnetic beads, 2 h; western blot for Akt; cells treated with ox-LDL, with or without ZIP (1 uM, 40 min) and Cav1 shRNA
T1 sequence: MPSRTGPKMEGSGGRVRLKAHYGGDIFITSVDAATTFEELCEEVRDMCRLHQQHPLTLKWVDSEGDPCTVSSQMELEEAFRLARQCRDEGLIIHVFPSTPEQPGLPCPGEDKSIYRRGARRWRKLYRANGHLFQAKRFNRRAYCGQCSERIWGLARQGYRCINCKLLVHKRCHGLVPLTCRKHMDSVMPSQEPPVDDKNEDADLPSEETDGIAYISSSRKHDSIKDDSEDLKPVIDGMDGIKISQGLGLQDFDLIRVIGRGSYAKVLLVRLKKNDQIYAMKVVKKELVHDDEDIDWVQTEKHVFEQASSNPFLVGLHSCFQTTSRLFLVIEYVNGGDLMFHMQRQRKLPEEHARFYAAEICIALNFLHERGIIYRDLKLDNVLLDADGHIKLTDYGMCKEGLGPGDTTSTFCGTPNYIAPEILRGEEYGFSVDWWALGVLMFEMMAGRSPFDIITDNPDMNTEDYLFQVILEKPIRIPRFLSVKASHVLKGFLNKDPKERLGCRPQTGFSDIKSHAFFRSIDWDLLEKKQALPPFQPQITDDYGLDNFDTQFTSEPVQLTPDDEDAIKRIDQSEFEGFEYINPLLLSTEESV

[2] = biological target: T2, GST-tagged PKCzeta protein (UniProt Q05513); assay: pull-down; GST Pull-down Kit; purified GST-tagged PKCzeta as bait on the gel (3 h), HUVEC extracts bound for 4 h, 4 washes, western blot for Akt; cells treated with ox-LDL, with or without ZIP (1 uM, 40 min) and Cav1 shRNA; only the target purified
T2 sequence: T1 sequence

Akt (human (endogenous in HUVECs))
binding [1]: binds
binding [2]: binds
